Results as given in article PMC6321117, “Sulfonamide Inhibition Studies of a New β-Carbonic Anhydrase from the Pathogenic Protozoan Entamoeba histolytica” (International Journal of Molecular Sciences, 2018).

Target: T1, EhiCA (β-carbonic anhydrase) (Entamoeba histolytica, UniProt C4LXK3)
T1 sequence (C4LXK3 1-188): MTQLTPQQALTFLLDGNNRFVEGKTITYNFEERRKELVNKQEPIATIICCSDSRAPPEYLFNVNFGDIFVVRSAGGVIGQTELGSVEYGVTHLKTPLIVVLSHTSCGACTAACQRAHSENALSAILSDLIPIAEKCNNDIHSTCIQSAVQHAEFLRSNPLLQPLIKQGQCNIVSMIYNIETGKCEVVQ
Experiment: biochemical
Experimental: An Sx.18Mv-R Applied Photophysics (Oxford, UK) stopped-flow instrument has been used to assay the catalytic activity of various CA isozymes for CO2 hydration reaction. […] The uncatalyzed rates were determined in the same manner and subtracted from the total observed rates. Stock solutions of inhibitors (0.1 mM) were prepared in distilled-deionized water, and dilutions up to 1 nM were done thereafter with the assay buffer. Enzyme and inhibitor solutions were pre-incubated together for 15 min before assay, to allow for the formation of the enzyme–inhibitor complex. The inhibition constants were obtained by non-linear least-squares methods using PRISM 3 and the Cheng–Prusoff equation, as reported earlier.

[1] = KI EhiCA, β class, stopped-flow CO2 hydrase assay, 3 different assays, errors 5–10%

SMILES	Ki (KI (Acetazolamide) EhiCA, 20 °C, pH 8.3, 20 mM TRIS, 20 mM NaClO4, this work) [nM]	Ki [1] [nM]
CC(=O)Nc1nnc(S(N)(=O)=O)s1 [AAZ, 5-acetamido-1,3,4-thiadiazole-2-sulfonamide]	509	509
CCN[C@H]1C[C@H](C)S(=O)(=O)c2sc(S(N)(=O)=O)cc21 [DZA, dorzolamide]	–	6440
